# Primary screen of a compound library

Source: ChEMBL document CHEMBL3988442, “University of Dundee, Small-Polar-MMV Screening Library” (2021).

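Assay on Mycobacterium tuberculosis, filed only as a heat shock assay from Cornell; the read-out is not stated. The concentration is filed as 10 mM, unlikely as a test dose, so the dose is not known. Higher reads as stronger inhibition (inferred: compounds with an IC50 in retests scored well above the rest). Size under these conditions: about 69,000 compounds, about 930 of them at 50% or above in at least one test.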

The filed quantity is “Percent Effect” (%).
The controls that fix the scale are not given in the record; negative values are as filed.
Compounds were drawn at random from those tested, without regard to their results.

- CC(=O)Nc1nc(C2CCN(C(=O)c3ccncc3)CC2)cs1 : -5.22%
- [H][C@@]12CCCCCN(C(C)=O)[C@@]1([H])[C@H](c1cccc(F)c1)CN2C(=O)C1CC1 : -4.589%
- CC(C)NC(=O)C1CN(C(=O)Nc2cccc(F)c2)CC12CCOCC2 (stereo not given) : -30.89%
- CC[C@H](C)Nc1ncc(-c2cccc(NC(=O)CNC)c2)cn1 : -9.021%
- CCC[C@H]1CN(S(=O)(=O)c2cc(C)ccc2C)C[C@@H]1N : -14.41%
- Cc1cnc(Nc2nccnc2C2CCN(C)CC2)s1 : 16.42%
- O=C(COc1ccc2c(c1)CCC2)NS(=O)(=O)c1cccnc1 : 9.171%
- COc1cccc(OCCN2CC[C@@](O)(C3CCOCC3)[C@H](C)C2)c1 : 3.244%
- CC(C)n1nc(CN(C)C)c2c1CN(C(=O)CC1CC1)CC2.O=C(O)C(F)(F)F : -39.04%
- CN(C)C[C@H]1CC[C@@H](Cc2ccc3c(cnn3C)c2)O1 : -4.898%
- O[C@@H]1CN(c2nc3ccccc3s2)CC[C@H]1c1ccc2c(c1)OCO2 : -12.43%
- Cc1oc(C(=O)O)cc1S(=O)(=O)Nc1cccc(-n2nccc2C)c1 : 2.861%
- Cc1c(Cl)cccc1NC(=O)CN(Cc1cccnc1)C(C)C : 3.268%
- CC(c1cccc(-c2ncccc2C#N)c1)N(C)C (stereo not given) : 73.93%
- CCn1cnnc1C1CCN(C(=O)c2cc(C)n(CC)c2C)CC1 : -4.055%
- Cc1noc(C)c1S(=O)(=O)N1CCC(Oc2ccccn2)CC1 : -5.764%
- CCC(NC(=O)C1CCN(C(=O)C2CC2)CC1)c1cn2cccnc2n1 (stereo not given) : 1.629%
- CC(NCCCc1cnn(C)c1)c1ccc(Br)s1 (stereo not given) : -6.801%
- CN1CCC(Cc2cc(Nc3ncccn3)ncn2)CC1 : -7.908%
- CCOC(C)c1nc(Cn2cc(-n3cccc3)cn2)cs1 (stereo not given) : 11.68%
- O=C(NCc1noc(C2CCCO2)n1)c1cn2ccsc2n1 (stereo not given) : 23.16%
- OCCC1CN(C2CCC2)CCN1C1CCCC1 (stereo not given) : -1.517%
- COc1ccc(CC(=O)N(C)c2cccnc2N(C)C)c(Cl)c1 : -0.4901%
- [H][C@]12CCC[C@@]1(COCC1CCOCC1)CN(C(=O)c1ccncn1)C2 : -26.12%
- CCOC(=O)N1CCN(C(=O)CCn2ccc3c(OC)cccc32)CC1 : -13.61%
- N#Cc1cccnc1N1CCN(C(=O)c2cccs2)CC1 : 16.71%
- CCOC(=O)Cc1csc(NC(=O)c2cc3n(n2)CCCO3)n1 : 9.81%
- O=C(Cc1ccc(F)cc1Cl)N1C[C@@H](CN2CCC(O)CC2)[C@@H](CO)C1 : 3.372%
- Cn1nc2c(cc1=O)CN(Cc1nc(-c3cccs3)no1)CC2 : -6.945%
- Cc1nc(-c2ccc(CO)cc2)cc(C2CCNCC2)n1.Cl : 16.08%
- CC(SCCC(=O)NC(N)=O)c1c(F)cccc1F (stereo not given) : -12.06%
- CN(Cc1noc(C(C)(C)C)n1)Cc1ccccc1N1CCCC1 : -28.88%
- Cn1nc(CNC(=O)c2nc3ccccc3s2)c2c1CCOC2 : 12.67%
- CC(=O)NC1CCCN(C(=O)NCc2cccnc2-n2cccn2)C1 (stereo not given) : 3.971%
- COc1ccc(CN2CCOC3(CCCN(c4cnccn4)C3)C2)cc1.O=C(O)C(F)(F)F.O=C(O)C(F)(F)F (stereo not given) : 3.979%
- Cc1cc(C2CCCN2C(=O)c2cc3c(s2)CCC3)on1 (stereo not given) : 4.613%
- [H][C@@]12C[C@@H](OCC3CC3)CN1CCN(S(=O)(=O)c1cccs1)C2 : -2.492%
- O=C(Cn1ccc(-c2ccccc2)n1)N1CCN(C(=O)C2CC2)CC1 : 0.6037%
- CC(O)(CNC(=O)NCCc1ccc2c(c1)CCO2)c1ccccc1 (stereo not given) : 6.119%
- O=C(O)C(F)(F)F.[H][C@@]12CCN(Cc3cn(C)c4ccccc34)[C@]1([H])CC[C@@H](C(=O)NC)O2 : 4.565%
- O=C(Cc1cn2ccsc2n1)N1CCOCC(O)(CN2CCCC2)C1 (stereo not given) : -4.832%
- CO[C@@H]1CCN(Cc2ccc(C)o2)[C@H]1Cc1ccccc1.O=C(O)C(F)(F)F : -13.2%
- O=C(CN1CCCC(Cn2cncn2)C1)NCCc1cccs1 (stereo not given) : -24.15%
- Cc1ccc(C(=O)NCCNC(=O)c2cncnc2C(C)C)cc1F : 26.31%
- Cc1ccc(NC2CCN(C(=O)c3cc[nH]n3)CC2)nn1 : 14.13%
- O=C(c1cnc(O)c(Cl)c1)N1CCCC(c2nccs2)C1 (stereo not given) : -2.431%
- Cc1nc2c(c(NC3CCN(Cc4ccccc4)CC3)n1)CCNCC2 : -6.453%
- CCOc1cc(CNC(=O)NCc2nc(C)c(C)s2)ccn1 : 3.621%
- O=C(NCC(O)c1ccc(F)cc1F)c1ccccc1F (stereo not given) : -9.86%
- O=C(Cc1noc2ccccc12)N1CCC(Nc2cccnn2)CC1 : -14.1%

4 of the entries, repeated:

With COc1cccc(OCCN2CC[C@@](O)(C3CCOCC3)[C@H](C)C2)c1 the screen gave 3.244%.
With Cc1c(Cl)cccc1NC(=O)CN(Cc1cccnc1)C(C)C the screen gave 3.268%.
With CCOc1cc(CNC(=O)NCc2nc(C)c(C)s2)ccn1 the screen gave 3.621%.
With CC[C@H](C)Nc1ncc(-c2cccc(NC(=O)CNC)c2)cn1 the screen gave -9.021%.